Measured values published in PMC13378946.
These are yes or no findings as the source states them, for the method shown. In cells and extracts the contact can be indirect. Some results given as binding are weak or reduced against the parent protein; the word gives no strength.

Protein sequences, listed by entry. Tags and fused reporters are not part of them. Residues count along the entry.
UniProt Q49AH0, residues 25-187: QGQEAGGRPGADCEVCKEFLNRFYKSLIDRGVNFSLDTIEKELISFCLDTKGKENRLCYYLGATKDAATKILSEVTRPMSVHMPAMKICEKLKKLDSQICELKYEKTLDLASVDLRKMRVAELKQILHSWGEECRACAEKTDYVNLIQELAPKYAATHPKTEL
UniProt Q91Y86: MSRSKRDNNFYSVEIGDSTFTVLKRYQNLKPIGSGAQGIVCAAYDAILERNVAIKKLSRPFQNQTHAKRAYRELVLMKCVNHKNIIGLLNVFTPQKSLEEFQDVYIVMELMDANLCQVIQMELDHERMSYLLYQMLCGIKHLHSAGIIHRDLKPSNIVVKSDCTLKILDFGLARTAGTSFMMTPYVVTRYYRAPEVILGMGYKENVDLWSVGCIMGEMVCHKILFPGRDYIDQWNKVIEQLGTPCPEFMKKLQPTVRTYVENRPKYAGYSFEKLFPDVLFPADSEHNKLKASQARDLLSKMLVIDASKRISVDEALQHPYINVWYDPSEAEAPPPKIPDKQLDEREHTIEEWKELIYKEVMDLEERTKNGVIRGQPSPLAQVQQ

Experiments:
[1] = target: T1, Cerebral dopamine neurotrophic factor (endogenous) (mouse (endogenous in primary microglia)) (UniProt Q8CC36); experiment: co-IP; lysate of primary mouse microglia (blank control or LPS 1 ug/mL); precleared with IgG and A/G agarose beads; CDNF primary antibody with A/G agarose beads, 12 hours at 4°C; immunoblot with JNK1 and JNK2 antibodies
T1 sequence: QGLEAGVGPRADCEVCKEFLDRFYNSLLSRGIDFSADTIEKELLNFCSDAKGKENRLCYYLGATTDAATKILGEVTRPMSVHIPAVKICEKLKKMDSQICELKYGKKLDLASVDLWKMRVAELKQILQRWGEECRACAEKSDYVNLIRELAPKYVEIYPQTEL

[2] = target: Cerebral dopamine neurotrophic factor (exogenous, Peprotech) (UniProt Q49AH0); experiment: co-IP; primary mouse microglia pretreated with exogenous CDNF (200 ng/mL, 1 hour), then LPS for 24 hours; lysate precipitated with CDNF primary antibody and A/G agarose beads, 12 hours at 4°C; immunoblot with JNK1 and JNK2 antibodies; only the target purified

Substance | binding [1] | binding [2]
c-Jun N-terminal kinase 2 (from UniProt Q9WTU6 1-423) (enzyme) | no binding | no binding
c-Jun N-terminal kinase 1 (from UniProt Q91Y86 1-384) (enzyme) | binds | binds
